Test results taken from PMC12418388.
No constants are given. Whether binding was seen depends on the method and setting. For some of these results: Binding seen in cells or lysates may run through a third protein. Some entries that bind do so weakly or less than the wild type. For some of these results: Where a sequence is shown, tags or fusion partners need not be part of it.

Sequences of proteins named here, by UniProt entry; tags and fusion partners are left off. A change or cut given only in a name is not applied to a line headed by its entry.
UniProt Q62167: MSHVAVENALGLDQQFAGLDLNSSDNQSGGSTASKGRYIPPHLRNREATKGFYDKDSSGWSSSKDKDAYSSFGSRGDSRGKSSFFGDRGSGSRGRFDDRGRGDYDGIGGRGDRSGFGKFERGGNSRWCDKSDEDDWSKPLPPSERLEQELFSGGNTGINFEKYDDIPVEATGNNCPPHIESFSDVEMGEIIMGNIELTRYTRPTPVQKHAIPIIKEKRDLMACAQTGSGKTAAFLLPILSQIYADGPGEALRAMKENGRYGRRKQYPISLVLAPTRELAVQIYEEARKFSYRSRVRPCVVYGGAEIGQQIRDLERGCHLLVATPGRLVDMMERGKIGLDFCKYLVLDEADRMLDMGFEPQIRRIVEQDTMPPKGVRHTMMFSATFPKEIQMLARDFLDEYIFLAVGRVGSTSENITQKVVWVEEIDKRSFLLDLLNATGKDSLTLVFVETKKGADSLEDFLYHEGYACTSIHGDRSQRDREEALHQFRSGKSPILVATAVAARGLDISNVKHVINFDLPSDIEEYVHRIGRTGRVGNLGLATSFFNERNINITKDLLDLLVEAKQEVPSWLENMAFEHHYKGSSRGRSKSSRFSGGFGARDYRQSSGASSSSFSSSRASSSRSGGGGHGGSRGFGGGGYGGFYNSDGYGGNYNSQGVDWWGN
UniProt Q6ZQ08: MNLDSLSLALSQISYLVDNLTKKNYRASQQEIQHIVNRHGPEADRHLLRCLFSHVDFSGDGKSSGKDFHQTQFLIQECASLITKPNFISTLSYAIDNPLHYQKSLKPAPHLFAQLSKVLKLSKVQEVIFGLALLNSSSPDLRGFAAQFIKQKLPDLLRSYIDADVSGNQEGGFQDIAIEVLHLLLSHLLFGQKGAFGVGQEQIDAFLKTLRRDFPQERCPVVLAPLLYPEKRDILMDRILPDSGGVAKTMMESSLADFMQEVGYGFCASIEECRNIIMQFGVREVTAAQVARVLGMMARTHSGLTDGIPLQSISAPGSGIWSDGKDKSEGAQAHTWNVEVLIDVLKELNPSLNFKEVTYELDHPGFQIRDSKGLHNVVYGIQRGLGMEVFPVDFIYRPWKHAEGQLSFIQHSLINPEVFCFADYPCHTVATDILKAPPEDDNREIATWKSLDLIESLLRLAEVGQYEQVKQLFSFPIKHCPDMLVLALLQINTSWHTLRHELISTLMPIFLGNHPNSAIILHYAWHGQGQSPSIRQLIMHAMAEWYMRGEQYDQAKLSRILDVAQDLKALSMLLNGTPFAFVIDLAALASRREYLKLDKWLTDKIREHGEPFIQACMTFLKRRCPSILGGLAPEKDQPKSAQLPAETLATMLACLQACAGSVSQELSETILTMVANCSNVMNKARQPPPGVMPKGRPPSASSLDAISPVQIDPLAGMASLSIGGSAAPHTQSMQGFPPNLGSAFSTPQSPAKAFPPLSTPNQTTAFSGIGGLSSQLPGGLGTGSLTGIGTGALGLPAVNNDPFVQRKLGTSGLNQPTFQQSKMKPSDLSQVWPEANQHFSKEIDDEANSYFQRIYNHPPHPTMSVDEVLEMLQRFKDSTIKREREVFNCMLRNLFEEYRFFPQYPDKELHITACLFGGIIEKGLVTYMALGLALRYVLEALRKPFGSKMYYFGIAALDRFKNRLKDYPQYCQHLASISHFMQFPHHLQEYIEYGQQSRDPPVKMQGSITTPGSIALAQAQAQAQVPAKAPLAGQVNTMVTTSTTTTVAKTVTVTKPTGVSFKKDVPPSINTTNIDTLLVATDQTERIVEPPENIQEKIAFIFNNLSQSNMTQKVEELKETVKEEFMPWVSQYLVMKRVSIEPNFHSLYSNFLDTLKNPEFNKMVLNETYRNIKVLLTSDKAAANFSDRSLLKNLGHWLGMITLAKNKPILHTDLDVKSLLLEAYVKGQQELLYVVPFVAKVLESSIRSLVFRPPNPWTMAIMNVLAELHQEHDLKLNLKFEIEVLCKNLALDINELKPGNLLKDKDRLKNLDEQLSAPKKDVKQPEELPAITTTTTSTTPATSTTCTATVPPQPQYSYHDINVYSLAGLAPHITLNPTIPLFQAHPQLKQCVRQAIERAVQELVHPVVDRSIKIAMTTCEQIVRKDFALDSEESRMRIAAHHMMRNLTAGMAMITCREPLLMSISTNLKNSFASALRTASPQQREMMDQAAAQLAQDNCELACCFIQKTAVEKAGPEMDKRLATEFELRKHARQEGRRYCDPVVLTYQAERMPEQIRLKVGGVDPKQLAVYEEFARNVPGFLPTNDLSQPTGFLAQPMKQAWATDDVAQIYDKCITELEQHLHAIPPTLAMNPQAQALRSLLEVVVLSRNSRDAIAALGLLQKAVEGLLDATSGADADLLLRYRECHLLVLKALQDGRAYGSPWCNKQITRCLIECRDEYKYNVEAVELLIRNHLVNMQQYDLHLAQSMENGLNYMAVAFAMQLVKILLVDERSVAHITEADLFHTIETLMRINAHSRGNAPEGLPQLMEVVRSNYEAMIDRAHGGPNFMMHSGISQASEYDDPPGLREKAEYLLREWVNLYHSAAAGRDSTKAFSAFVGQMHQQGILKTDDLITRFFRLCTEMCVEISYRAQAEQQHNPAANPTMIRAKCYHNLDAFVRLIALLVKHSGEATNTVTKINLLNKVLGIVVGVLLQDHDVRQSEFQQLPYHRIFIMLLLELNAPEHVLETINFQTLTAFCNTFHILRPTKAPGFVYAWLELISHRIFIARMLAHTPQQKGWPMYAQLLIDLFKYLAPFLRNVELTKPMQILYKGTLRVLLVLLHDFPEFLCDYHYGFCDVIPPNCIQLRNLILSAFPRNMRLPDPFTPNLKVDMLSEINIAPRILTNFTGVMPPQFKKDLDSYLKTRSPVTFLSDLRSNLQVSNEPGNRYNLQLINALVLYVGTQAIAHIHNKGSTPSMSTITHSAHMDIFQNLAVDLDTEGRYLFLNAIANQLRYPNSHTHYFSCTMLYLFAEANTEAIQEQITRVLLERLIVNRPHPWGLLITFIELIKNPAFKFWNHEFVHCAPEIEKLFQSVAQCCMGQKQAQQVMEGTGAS
UniProt O00303: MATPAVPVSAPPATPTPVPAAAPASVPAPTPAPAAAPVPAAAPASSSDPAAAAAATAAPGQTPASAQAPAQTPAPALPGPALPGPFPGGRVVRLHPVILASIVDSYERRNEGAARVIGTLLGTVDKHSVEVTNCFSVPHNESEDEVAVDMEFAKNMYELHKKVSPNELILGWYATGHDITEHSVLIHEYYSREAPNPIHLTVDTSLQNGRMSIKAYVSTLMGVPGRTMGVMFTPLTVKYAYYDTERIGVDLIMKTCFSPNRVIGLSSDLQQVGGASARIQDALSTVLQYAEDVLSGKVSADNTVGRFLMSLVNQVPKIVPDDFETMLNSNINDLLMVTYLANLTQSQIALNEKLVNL

Key:
[1] = biological target: T1, Flag-DDX6 (86–468), RecA1-RecA2 domain, in 293T cells (UniProt P54823); test: co-IP; anti-Flag M2 affinity gel from 293T cells transfected with DDX6 truncation mutants and HA-DDX3X; 50 mM Tris pH 7.5, 150 mM NaCl, 1.0% NP-40, 10% glycerol, 1 mM EDTA; western blot
T1 sequence: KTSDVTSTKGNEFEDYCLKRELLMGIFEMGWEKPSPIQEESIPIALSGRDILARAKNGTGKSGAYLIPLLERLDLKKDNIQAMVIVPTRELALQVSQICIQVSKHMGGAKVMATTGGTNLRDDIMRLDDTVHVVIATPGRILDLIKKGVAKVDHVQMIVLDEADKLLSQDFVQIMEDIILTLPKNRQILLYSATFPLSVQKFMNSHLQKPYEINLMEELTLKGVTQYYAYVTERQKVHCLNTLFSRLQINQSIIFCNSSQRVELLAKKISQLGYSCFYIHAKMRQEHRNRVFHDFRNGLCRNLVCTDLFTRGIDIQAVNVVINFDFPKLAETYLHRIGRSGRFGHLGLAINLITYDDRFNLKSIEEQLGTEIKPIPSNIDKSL

[2] = biological target: T2, GST-DDX6 (86–468), bacterially expressed (UniProt P54823); test: pull-down; GST-DDX6 fusion proteins (10 μg) immobilised on Glutathione Sepharose 4B, incubated with lysates of HA-DDX3X-transfected 293T cells in RIPA buffer; western blot; only the target purified
T2 sequence: T1 sequence

[3] = biological target: T3, GST-DDX6 (wild type), recombinant (UniProt P54823); test: pull-down; GST fusion proteins (10 μg) immobilised on Glutathione Sepharose 4B, incubated with purified His-MBP-DDX3X^166-590 in RIPA buffer; western blot; both purified
T3 sequence: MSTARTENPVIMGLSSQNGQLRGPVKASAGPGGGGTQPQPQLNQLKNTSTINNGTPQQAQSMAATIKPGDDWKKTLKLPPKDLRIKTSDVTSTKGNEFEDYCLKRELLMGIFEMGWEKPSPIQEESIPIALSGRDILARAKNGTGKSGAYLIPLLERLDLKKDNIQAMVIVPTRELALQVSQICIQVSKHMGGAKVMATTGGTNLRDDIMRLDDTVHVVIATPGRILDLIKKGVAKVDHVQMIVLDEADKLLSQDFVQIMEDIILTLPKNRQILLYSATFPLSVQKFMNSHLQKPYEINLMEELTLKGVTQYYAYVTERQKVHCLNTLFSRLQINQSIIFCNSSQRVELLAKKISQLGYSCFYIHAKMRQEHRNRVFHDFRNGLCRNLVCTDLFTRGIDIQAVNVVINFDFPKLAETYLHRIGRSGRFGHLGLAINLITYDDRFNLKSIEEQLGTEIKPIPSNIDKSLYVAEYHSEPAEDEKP

[4] = biological target: T4, wild-type DDX6 of the co-IP experiments of Supplementary Fig. S6 (UniProt P54823); test: co-IP; co-IP of wild-type, truncated and mutant DDX6 proteins (Supplementary Fig. S6A, B); cells not given; western blot
T4 sequence: T3 sequence

[5] = biological target: T5, Flag-tagged DDX6 (wild type) expressed in DDX6 cKO mESCs (UniProt P54823); test: co-IP; anti-Flag M2 affinity gel from lysates of genetically rescued cKO mESCs expressing Flag-DDX6 or Flag-DDX3X at endogenous levels; 50 mM Tris pH 7.5, 150 mM NaCl, 1.0% NP-40, 10% glycerol, 1 mM EDTA; western blot
T5 sequence: T3 sequence

[6] = biological target: Flag-DDX3X affinity-purified from HEK293T cells (UniProt Q62167); test: pull-down; Flag-DDX3X affinity-purified and immobilised on M2 agarose beads, incubated with lysates of HA-eIF3F-expressing HEK293T cells (150 mM KCl); western blot of eIF3 subunits; only the target purified

For “HA-DDX3X expressed in 293T cells (from UniProt Q62167 1-662)”, the binding [1] was “binds” and the binding [2] was “binds”.

“6xHis-MBP-DDX3X^166-590 (from UniProt Q62167 166-590) (domain or fragment)” was tested, and the binding [3] was “binds”.

For CNOT1 (from UniProt Q6ZQ08 1-2375), the binding [4] was “binds”.

In the case of “DDX3X found in the co-IP experiments of Supplementary Fig. S6 (from UniProt Q62167 1-662)”, the binding [4] is reported as “binds”.

For “DDX3X, endogenous in mESCs (from UniProt Q62167 1-662)”, the binding [5] was “binds”.

For HA-eIF3F (from UniProt O00303 1-357), the binding [6] was “binds”.
